Out of some 220,000 compounds screened, about 2,400 (1.1%) were called active. The shares of active, inactive and inconclusive entries below differ from those in the screen. Calls come from the whole dose curve; as a rule, active = well fitted inhibition curve with a large enough effect; inconclusive = small, poorly fitted or top-dose-only effect, or effect the other way; inactive = no such curve, though single readings can be large or run the other way. Potencies of inconclusive entries are doubtful fits and often do not repeat.
Experiment: qHTS Multiplex Assay to Identify Dual Action Probes in a Cell Model of Huntington: Aggregate Formation (GFP); note: nearly all actives have a fitted effect of over 60% in size
Details: PC12 HttQ103-GFP aggregates, Acumen cytometry, 40 h; activity change, negative = inhibition: at 46.1 µM (top of the series) unless noted
Outline: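 PC12/HTTQ103-GFP, ecdysone-inducible; teb 100 nM; cpd qHTS titration; GFP aggregates read on laser cytometer, Ex 488/Em 500-530 nm.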
% is set by controls: 0 for no effect and ±100 for the full control effect; potency is the fitted concentration of half-maximal effect.

Row | SMILES | Potency | activity change, negative = inhibition
1 | O=C(/C=C/c1ccco1)NC(=S)Nc1cccc(-c2nc3ccccc3o2)c1 | inconclusive: 35.5 µM [activator, single point] | –
2 | FC(F)(F)c1cccc(CNC(=S)Nc2ccccc2)c1 | – | inactive: 22.2% [at 9.22 µM]
3 | Cc1cc(Cl)c(S(=O)(=O)N2CCN(c3ccc(F)cc3)CC2)cc1OCC(=O)NC1CCCCC1 | – | inactive: -32.4% [at 9.22 µM]
4 | Cn1c(Cn2c(=O)sc3ccccc32)nnc1SCC(=O)NCC1CCCO1 (centres undefined) | inactive | –
5 | CCOC(=O)c1cnc2c(C)cccc2c1NCCc1ccc(OC)c(OC)c1 | inconclusive: 35.5 µM [inhibitor, single point] | –
6 | COC(=O)c1c(NC(=O)C2CC(=O)NN2Cc2ccccc2)sc(C)c1C (centres undefined) | inactive | –
7 | Cc1ccc(N2CCN(CCc3nc4cc(NC(=O)c5ccco5)ccc4n3C)CC2)cc1 | inconclusive: 2.24 µM [activator, partial curve] | –
8 | c1ccc2cc(OCc3nc4ccccc4[nH]3)ccc2c1 | inconclusive: 35.5 µM [inhibitor, single point] | –
9 | COC(=O)C1C(O)=C(C=NC2CCCCC2)C(=O)CC1(C)C (centres undefined) | inconclusive: 10 µM [activator, partial curve] | –
10 | Nc1c(S(=O)(=O)c2cccs2)c2nc3ccccc3nc2n1CC1CCCO1 (centres undefined) | active: 0.0022 µM | –
11 | COc1ccc(C(=O)COC(=O)[C@H](C)Nc2ccc(C(F)(F)F)cc2[N+](=O)[O-])cc1 | inconclusive: 0.562 µM [activator, full curve] | –
12 | Cc1ccccc1NC(=O)CSc1nc(N)c(C#N)c(-c2cccs2)c1C#N | inactive | –
13 | Cc1[nH]n(-c2ccccc2)c(=O)c1/C=N/n1c(C)nc2ccccc2c1=O | inconclusive: 35.5 µM [inhibitor, single point] | –
14 | Cc1ccc(CSCCC(=O)NCCC2=CCCCC2)cc1 | inconclusive: 17.8 µM [inhibitor, single point] | –
15 | CCOc1ccc(Oc2ccccc2NC(=O)CCNC(C)=O)cc1 | inactive | –
16 | COc1ccc(S(=O)(=O)n2cnc3cc(C)c(C)cc32)cc1C | inconclusive: 25.1 µM [inhibitor, single point] | –
17 | CC(C)(C)OC(=O)N[C@@H](Cc1ccccc1)c1nnc(SCC(N)=O)o1 | – | inactive: 5.63% [at 9.22 µM]
18 | O=c1oc2ccccc2nc1/C=C(O)/C=C\c1ccccc1 | inconclusive: 15.8 µM [activator, single point] | –
19 | CCOc1ccc2ncc(S(=O)(=O)c3ccc(C)cc3)c(N3CCC4(CC3)OCCO4)c2c1 | inconclusive: 5.62 µM [inhibitor, single point] | –

A draw from above in order of length of the SMILES, low to high:
Row | SMILES | Potency | activity change, negative = inhibition
14 | Cc1ccc(CSCCC(=O)NCCC2=CCCCC2)cc1 | inconclusive: 17.8 µM [inhibitor, single point] | –
6 | COC(=O)c1c(NC(=O)C2CC(=O)NN2Cc2ccccc2)sc(C)c1C (centres undefined) | inactive | –
1 | O=C(/C=C/c1ccco1)NC(=S)Nc1cccc(-c2nc3ccccc3o2)c1 | inconclusive: 35.5 µM [activator, single point] | –
